A short description of this data set: general procedure: solution-phase peptide synthesis; EDCI/HOBt.

The substance N-Ac-Asp-(Bz)-Glu(Bz)-Val-Asp(di-bz) gave a step yield (coupling step) of 94%.

“N-(N-Acetyl-L-aspartyl-L-glutamyl-L-valinyl)-3-amino-3-formylpropionic acid” came in with a step yield (late stage modification step) of 47%.

Regarding N-Ac-Asp-Glu-Val-Asp, the step yield (late stage modification step) is 93%.

For the origin of these results see US5798442A (Merck Frosst Canada, Inc., priority 1995, dated 1998).
